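Human melanoma cell lines in 1,536-well plates were treated with a single drug for 72 h, then fixed, stained and imaged. Values are the share of nuclei positive for cleaved PARP as a percentage of the same share in the DMSO control: 100 is the control level, higher means more apoptosis. Every drug was used at one fixed concentration, the higher of two screened. These are primary screening values without error estimates. Basal and induced levels differ widely between cell lines.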
This is part of the screen, not chosen by result.
An entry leaves out what has no value listed here.

Drugs:
IMD-0354: O=C(Nc1cc(C(F)(F)F)cc(C(F)(F)F)c1)c1cc(Cl)ccc1O at 0.08 µM
RKI-983: C[C@@H](N)c1ccc(C(=O)Nc2ccnc3[nH]ccc23)cc1 at 2 µM
erlotinib: C#Cc1cccc(Nc2ncnc3cc(OCCOC)c(OCCOC)cc23)c1 at 4 µM
lestaurtinib: C[C@]12O[C@H](C[C@]1(O)CO)n1c3ccccc3c3c4c(c5c6ccccc6n2c5c31)CNC4=O at 0.02 µM
nutlin-3: COc1ccc(C2=N[C@@H](c3ccc(Cl)cc3)[C@@H](c3ccc(Cl)cc3)N2C(=O)N2CCNC(=O)C2)c(OC(C)C)c1 at 0.5 µM
ENMD-2076: Cc1cc(Nc2cc(N3CCN(C)CC3)nc(/C=C/c3ccccc3)n2)n[nH]1 at 0.2 µM
AS-252424: O=C1NC(=O)/C(=C/c2ccc(-c3ccc(F)cc3O)o2)S1 at 5 µM
L-779450: Oc1cc(-c2nc(-c3ccccc3)[nH]c2-c2ccncc2)ccc1Cl at 1 µM
VX-702: NC(=O)c1ccc(N(C(N)=O)c2c(F)cccc2F)nc1-c1ccc(F)cc1F at 2 µM
T0901317: O=S(=O)(c1ccccc1)N(CC(F)(F)F)c1ccc(C(O)(C(F)(F)F)C(F)(F)F)cc1 at 7 µM
enzastaurin: Cn1cc(C2=C(c3cn(C4CCN(Cc5ccccn5)CC4)c4ccccc34)C(=O)NC2=O)c2ccccc21 at 4 µM
GSK650394: O=C(O)c1ccc(-c2c[nH]c3ncc(-c4ccccc4)cc23)cc1C1CCCC1 at 0.8 µM
GW0742: Cc1cc(SCc2sc(-c3ccc(C(F)(F)F)c(F)c3)nc2C)ccc1OCC(=O)O at 10 µM
CX-4945: O=C(O)c1ccc2c(c1)nc(Nc1cccc(Cl)c1)c1ccncc12 at 2 µM
tanespimycin: C=CCNC1=C2C[C@@H](C)C[C@H](OC)[C@H](O)[C@@H](C)/C=C(\C)[C@H](OC(N)=O)[C@@H](OC)/C=C\C=C(/C)C(=O)NC(=CC1=O)C2=O at 0.01 µM
GW2580: COc1ccc(COc2ccc(Cc3cnc(N)nc3N)cc2OC)cc1 at 5 µM
etoposide: COc1cc([C@@H]2c3cc4c(cc3[C@@H](O[C@@H]3O[C@@H]5CO[C@@H](C)O[C@H]5[C@H](O)[C@H]3O)[C@H]3COC(=O)[C@H]23)OCO4)cc(OC)c1O at 0.1 µM
dorsomorphin: c1cc(-c2cnn3cc(-c4ccc(OCCN5CCCCC5)cc4)cnc23)ccn1 at 2 µM
BI-78D3: O=c1[nH]nc(Sc2ncc([N+](=O)[O-])s2)n1-c1ccc2c(c1)OCCO2 at 1 µM
fingolimod: CCCCCCCCc1ccc(CCC(N)(CO)CO)cc1 at 10 µM
dasatinib: Cc1nc(Nc2ncc(C(=O)Nc3c(C)cccc3Cl)s2)cc(N2CCN(CCO)CC2)n1 at 0.02 µM
A-769662: N#Cc1c(O)c2c(-c3ccc(-c4ccccc4O)cc3)csc2[nH]c1=O at 10 µM
Src-I1: COc1cc2ncnc(Nc3ccc(Oc4ccccc4)cc3)c2cc1OC at 10 µM
vatalanib: Clc1ccc(Nc2nnc(Cc3ccncc3)c3ccccc23)cc1 at 10 µM
stibogluconate: O=C(O)[C@@H]1[O][Sb](=[O])([O][Sb]2(=[O])[O][C@H]([C@H](O)CO)[C@H](O)[C@H](C(=O)O)[O]2)[O][C@H]([C@H](O)CO)[C@@H]1O (stereo partly shown) at 10 µM
GW441756: Cn1cc(/C=C2\C(=O)Nc3cccnc32)c2ccccc21 at 2 µM
docetaxel: CC(=O)O[C@@]12CO[C@@H]1C[C@H](O)[C@@]1(C)C(=O)[C@H](O)C3=C(C)[C@@H](OC(=O)[C@H](O)[C@@H](NC(=O)OC(C)(C)C)c4ccccc4)C[C@@](O)([C@@H](OC(=O)c4ccccc4)[C@H]21)C3(C)C at 0.0005 µM
TCS401: O=C(O)C(=O)Nc1sc2c(c1C(=O)O)CCNC2 at 8.33 µM

vatalanib gave WM3526: 212. For nutlin-3 the values were WM3526: 110. Results for A-769662 are WM3526: 167; 501mel: 86.8.

docetaxel gave WM3526: 2480. Results for VX-702 are WM3526: 100. stibogluconate gave WM3526: 156.

TCS401 gave WM3526: 160; 501mel: 72.5. For CX-4945 the values were WM3526: 184. Results for L-779450 are WM3526: 632; 501mel: 94.9.

dasatinib gave WM3526: 52.9. With lestaurtinib the screen read WM3526: 219. ENMD-2076 gave WM3526: 33.8.

With dorsomorphin the screen read WM3526: 236; 501mel: 112. For BI-78D3 the values were WM3526: 82.2. erlotinib gave WM3526: 124.

Results for AS-252424 are WM3526: 124; 501mel: 32.9. For fingolimod the values were WM3526: 4590. Results for IMD-0354 are WM3526: 44.2.

GW441756 gave WM3526: 154; 501mel: 24.9. For GW2580 the values were WM3526: 101; 501mel: 76.3. RKI-983 gave WM3526: 138.

Results for T0901317 are WM3526: 54.5; 501mel: 136. Results for tanespimycin are WM3526: 162. With enzastaurin the screen read WM3526: 283.

Results for etoposide are WM3526: 79.8. Results for GSK650394 are WM3526: 114. For GW0742 the values were WM3526: 104; 501mel: 51.2.

Results for Src-I1 are WM3526: 218; 501mel: 133.

Data from the primary screen of doi:10.1371/journal.pone.0140310, rounded.